# Some of the results follow. The list holds hits alone, and they repeat only in part.
# Protein sequences, listed by entry. Tags and fused reporters are not part of them.
# HIST1H1D, P16402, UniProt P16402, whole entry: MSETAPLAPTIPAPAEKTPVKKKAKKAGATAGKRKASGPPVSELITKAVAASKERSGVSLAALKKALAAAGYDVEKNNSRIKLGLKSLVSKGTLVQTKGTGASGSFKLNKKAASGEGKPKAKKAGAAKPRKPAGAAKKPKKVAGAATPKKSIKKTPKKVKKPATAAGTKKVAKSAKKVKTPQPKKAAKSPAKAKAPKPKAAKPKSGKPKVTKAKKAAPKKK
# MORF4L2, Q15014, UniProt Q15014, whole entry: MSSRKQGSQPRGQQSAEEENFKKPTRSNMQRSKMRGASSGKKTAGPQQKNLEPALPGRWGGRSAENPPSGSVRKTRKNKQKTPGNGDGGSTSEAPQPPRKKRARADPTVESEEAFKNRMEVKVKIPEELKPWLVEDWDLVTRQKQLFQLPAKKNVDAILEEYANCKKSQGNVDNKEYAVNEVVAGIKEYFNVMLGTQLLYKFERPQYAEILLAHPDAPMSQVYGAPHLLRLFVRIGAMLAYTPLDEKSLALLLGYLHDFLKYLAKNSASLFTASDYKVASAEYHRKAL
# PABPC4, Q13310, UniProt Q13310, whole entry: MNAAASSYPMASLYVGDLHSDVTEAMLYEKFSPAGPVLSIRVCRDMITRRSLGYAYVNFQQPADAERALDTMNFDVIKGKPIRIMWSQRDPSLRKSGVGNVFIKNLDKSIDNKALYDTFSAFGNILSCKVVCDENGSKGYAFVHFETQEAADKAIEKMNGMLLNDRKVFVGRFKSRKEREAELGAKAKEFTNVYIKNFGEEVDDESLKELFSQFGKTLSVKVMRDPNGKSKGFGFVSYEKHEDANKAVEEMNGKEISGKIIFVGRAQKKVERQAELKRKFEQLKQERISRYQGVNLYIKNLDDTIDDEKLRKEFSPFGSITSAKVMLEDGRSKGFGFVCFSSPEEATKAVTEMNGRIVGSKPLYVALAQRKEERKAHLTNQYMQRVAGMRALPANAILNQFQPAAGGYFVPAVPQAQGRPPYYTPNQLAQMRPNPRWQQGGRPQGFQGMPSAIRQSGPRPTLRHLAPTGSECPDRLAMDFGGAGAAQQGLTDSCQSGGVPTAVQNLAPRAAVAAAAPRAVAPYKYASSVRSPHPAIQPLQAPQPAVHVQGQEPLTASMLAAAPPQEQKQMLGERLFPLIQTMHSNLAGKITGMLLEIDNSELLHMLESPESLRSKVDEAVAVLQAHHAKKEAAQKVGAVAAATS
# Experiments:
# Assay in all cases: PRISMA enrichment of interactor (LFQ) in peptide spot vs all other peptide spots (log2 fold change); higher = stronger / more specific binding of the interactor to the peptide
# [1] = biological target: AGPS, O00116
# Procedure: (§1)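 PRISMA: 15-aa overlapping tiles (offset 8 aa) of 60 microproteins, plus SOS1/GLUT1 control peptides, were spot-synthesized on cellulose membranes in triplicate. Membranes were incubated with benzonase-treated HEK293T lysate, and bound proteins were identified by LC-MS/MS with LFQ. Enrichment is the log2 fold change of each protein in one spot versus all other spots. Only interactors passing the significance cutoff are listed.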
# [2] = biological target: ALYREF, Q86V81
# Procedure: as §1
# [3] = biological target: AURKAIP1, Q9NWT8
# Procedure: as §1
# [4] = biological target: C11orf98, E9PRG8
# Procedure: as §1
# [5] = biological target: C19orf53, Q9UNZ5
# Procedure: as §1
# [6] = biological target: CFAP20, Q9Y6A4
# Procedure: as §1
# [7] = biological target: CHMP4A, Q9BY43
# Procedure: as §1
# [8] = biological target: CSNK1A1, P48729
# Procedure: as §1
# [9] = biological target: CSNK1D, P48730
# Procedure: as §1
# [10] = biological target: CSNK1E, P49674
# Procedure: as §1
# [11] = biological target: CTNND1, O60716
# Procedure: as §1
# [12] = biological target: CXorf56, Q9H5V9
# Procedure: as §1
# [13] = biological target: DDX49, Q9Y6V7
# Procedure: as §1
# [14] = biological target: EMG1, Q92979
# Procedure: as §1
# [15] = biological target: H1FX, Q92522
# Procedure: as §1
# [16] = biological target: HIST1H1C, P16403
# Procedure: as §1
# [17] = biological target: HIST1H1D, P16402
# Procedure: as §1
# [18] = biological target: HIST1H1T, P22492
# Procedure: as §1
# [19] = biological target: MORF4L1, Q9UBU8
# Procedure: as §1
# [20] = biological target: MORF4L2, Q15014
# Procedure: as §1
# [21] = biological target: MRPL34, Q9BQ48
# Procedure: as §1
# [22] = biological target: MRRF, Q96E11
# Procedure: as §1
# [23] = biological target: NDUFB7, P17568
# Procedure: as §1
# [24] = biological target: NDUFV1, P49821
# Procedure: as §1
# [25] = biological target: NIFK, Q9BYG3
# Procedure: as §1
# [26] = biological target: OPA1, O60313
# Procedure: as §1
# [27] = biological target: PIN4, Q9Y237
# Procedure: as §1
# [28] = biological target: PLK1, P53350
# Procedure: as §1
# [29] = substrate: PPIB, P23284
# Procedure: as §1
# [30] = substrate: PPIF, P30405
# Procedure: as §1
# [31] = biological target: PUSL1, Q8N0Z8
# Procedure: as §1
# [32] = biological target: RBIS, Q8N0T1
# Procedure: as §1
# [33] = biological target: SCP2, P22307
# Procedure: as §1
# [34] = biological target: SERF2, P84101
# Procedure: as §1
# [35] = biological target: SRP14, P37108
# Procedure: as §1
# [36] = biological target: ZNF22, P17026
# Procedure: as §1
# [37] = biological target: ZNF687, Q8N1G0
# Procedure: as §1
# [38] = biological target: hCG_2014768
# Procedure: as §1
# [39] = biological target: AHCTF1, Q8WYP5
# Procedure: as §1
# [40] = biological target: ATG3, Q9NT62
# Procedure: as §1
# [41] = biological target: CDC37, Q16543
# Procedure: as §1
# [42] = biological target: FAM3C, Q92520
# Procedure: as §1
# [43] = biological target: FOXK1, P85037
# Procedure: as §1
# [44] = biological target: MPG, P29372
# Procedure: as §1
# [45] = biological target: PCYT1A, P49585
# Procedure: as §1
# [46] = biological target: RIOK2, Q9BVS4
# Procedure: as §1
# [47] = biological target: SNX9, Q9Y5X1
# Procedure: as §1
# [48] = biological target: SUPT6H, Q7KZ85
# Procedure: as §1
# [49] = biological target: TBL2, Q9Y4P3
# Procedure: as §1
# [50] = biological target: TCAF1, Q9Y4C2
# Procedure: as §1
# [51] = biological target: TEX264, Q9Y6I9
# Procedure: as §1
# [52] = biological target: UTP14A, Q9BVJ6
# Procedure: as §1
# [53] = biological target: ANP32B, Q92688
# Procedure: as §1
# [54] = biological target: C1QBP, Q07021
# Procedure: as §1
# [55] = biological target: CDCA7L, Q96GN5
# Procedure: as §1
# [56] = biological target: FABP5, Q01469
# Procedure: as §1
# [57] = biological target: GART, P22102
# Procedure: as §1
# [58] = biological target: GPS1, Q13098
# Procedure: as §1
# [59] = biological target: NUDC, Q9Y266
# Procedure: as §1
# [60] = biological target: RBM15, Q96T37
# Procedure: as §1
# [61] = biological target: RBM22, Q9NW64
# Procedure: as §1
# [62] = biological target: RNF213, Q63HN8
# Procedure: as §1
# [63] = biological target: RPLP1, P05386
# Procedure: as §1
# [64] = biological target: SET, Q01105
# Procedure: as §1
# [65] = biological target: SLC35B2, Q8TB61
# Procedure: as §1
# [66] = biological target: CBSL
# Procedure: as §1
# [67] = biological target: CDK11A, Q9UQ88
# Procedure: as §1
# [68] = biological target: CDKN2AIP, Q9NXV6
# Procedure: as §1
# [69] = biological target: CGN, Q9P2M7
# Procedure: as §1
# [70] = biological target: CHCHD3, Q9NX63
# Procedure: as §1
# [71] = biological target: CKAP4, Q07065
# Procedure: as §1
# [72] = biological target: CNN3, Q15417
# Procedure: as §1
# [73] = biological target: CSTF3, Q12996
# Procedure: as §1
# [74] = biological target: DDX1, Q92499
# Procedure: as §1
# [75] = biological target: EIF2S2, P20042
# Procedure: as §1
# [76] = biological target: FIS1, Q9Y3D6
# Procedure: as §1
# [77] = biological target: FUBP3, Q96I24
# Procedure: as §1
# [78] = biological target: HNRNPL, P14866
# Procedure: as §1
# [79] = biological target: HP1BP3, Q5SSJ5
# Procedure: as §1
# [80] = biological target: ILF3, Q12906
# Procedure: as §1
# [81] = biological target: LMNB1, P20700
# Procedure: as §1
# [82] = biological target: MCRIP2, Q9BUT9
# Procedure: as §1
# [83] = biological target: MTCH2, Q9Y6C9
# Procedure: as §1
# [84] = biological target: MXRA7, P84157
# Procedure: as §1
# [85] = biological target: NOM1, Q5C9Z4
# Procedure: as §1
# [86] = biological target: PABPC4, Q13310
# Procedure: as §1
# [87] = biological target: PCID2, Q5JVF3
# Procedure: as §1
# [88] = biological target: POM121C, A8CG34
# Procedure: as §1
# [89] = biological target: PRRC2A, P48634
# Procedure: as §1
# [90] = biological target: PTOV1, Q86YD1
# Procedure: as §1
# [91] = biological target: RBMS1, P29558
# Procedure: as §1
binder,measurement,setting,value
FLPDVLLSDSSDTSE [NAV2-AS2_2],PRISMA enrichment of interactor (log2),[1],4
same,PRISMA enrichment of interactor (log2),[2],5.46
same,PRISMA enrichment of interactor (log2),[3],4.66
same,PRISMA enrichment of interactor (log2),[4],5.34
same,PRISMA enrichment of interactor (log2),[5],9.05
same,PRISMA enrichment of interactor (log2),[6],4.36
same,PRISMA enrichment of interactor (log2),[7],4.45
same,PRISMA enrichment of interactor (log2),[8],5.83
same,PRISMA enrichment of interactor (log2),[9],4.77
same,PRISMA enrichment of interactor (log2),[10],5.6
same,PRISMA enrichment of interactor (log2),[11],7.33
same,PRISMA enrichment of interactor (log2),[12],4.57
same,PRISMA enrichment of interactor (log2),[13],5.45
same,PRISMA enrichment of interactor (log2),[14],7.67
same,PRISMA enrichment of interactor (log2),[15],5.14
same,PRISMA enrichment of interactor (log2),[16],6.5
same,PRISMA enrichment of interactor (log2),[17],7.69
same,PRISMA enrichment of interactor (log2),[18],4.63
same,PRISMA enrichment of interactor (log2),[19],4.58
same,PRISMA enrichment of interactor (log2),[20],6.18
same,PRISMA enrichment of interactor (log2),[21],4.54
same,PRISMA enrichment of interactor (log2),[22],4.85
same,PRISMA enrichment of interactor (log2),[23],4.81
same,PRISMA enrichment of interactor (log2),[24],11.2
same,PRISMA enrichment of interactor (log2),[25],4.48
same,PRISMA enrichment of interactor (log2),[26],5
same,PRISMA enrichment of interactor (log2),[27],4.82
same,PRISMA enrichment of interactor (log2),[28],4.82
same,PRISMA enrichment of interactor (log2),[29],5.48
same,PRISMA enrichment of interactor (log2),[30],7.32
same,PRISMA enrichment of interactor (log2),[31],5.02
same,PRISMA enrichment of interactor (log2),[32],4.53
same,PRISMA enrichment of interactor (log2),[33],4.99
same,PRISMA enrichment of interactor (log2),[34],6.68
same,PRISMA enrichment of interactor (log2),[35],5.59
same,PRISMA enrichment of interactor (log2),[36],4.71
same,PRISMA enrichment of interactor (log2),[37],4.29
same,PRISMA enrichment of interactor (log2),[38],4.95
EECKQSAKNKPVGCT [PEX2],PRISMA enrichment of interactor (log2),[39],4.87
same,PRISMA enrichment of interactor (log2),[40],6.06
same,PRISMA enrichment of interactor (log2),[41],7.14
same,PRISMA enrichment of interactor (log2),[42],4.82
same,PRISMA enrichment of interactor (log2),[43],4.15
same,PRISMA enrichment of interactor (log2),[44],6.27
same,PRISMA enrichment of interactor (log2),[45],5.37
same,PRISMA enrichment of interactor (log2),[46],6.65
same,PRISMA enrichment of interactor (log2),[47],4.55
same,PRISMA enrichment of interactor (log2),[48],6.68
same,PRISMA enrichment of interactor (log2),[49],5.91
same,PRISMA enrichment of interactor (log2),[50],4.21
same,PRISMA enrichment of interactor (log2),[51],4.18
same,PRISMA enrichment of interactor (log2),[52],7.04
AHGTRARRATAASPS [THAP7],PRISMA enrichment of interactor (log2),[39],4.59
same,PRISMA enrichment of interactor (log2),[53],5.9
same,PRISMA enrichment of interactor (log2),[54],6.57
same,PRISMA enrichment of interactor (log2),[55],5.45
same,PRISMA enrichment of interactor (log2),[56],5.6
same,PRISMA enrichment of interactor (log2),[57],4.89
same,PRISMA enrichment of interactor (log2),[58],4.14
same,PRISMA enrichment of interactor (log2),[59],6.23
same,PRISMA enrichment of interactor (log2),[45],4.06
same,PRISMA enrichment of interactor (log2),[60],5.15
same,PRISMA enrichment of interactor (log2),[61],7.88
same,PRISMA enrichment of interactor (log2),[62],11.6
same,PRISMA enrichment of interactor (log2),[63],6.29
same,PRISMA enrichment of interactor (log2),[64],5.43
same,PRISMA enrichment of interactor (log2),[65],4.41
SPADVAGPGLAMEKA [RP11-432J24.5_2],PRISMA enrichment of interactor (log2),[39],5.56
same,PRISMA enrichment of interactor (log2),[5],5.8
same,PRISMA enrichment of interactor (log2),[66],4.14
same,PRISMA enrichment of interactor (log2),[67],5.79
same,PRISMA enrichment of interactor (log2),[68],4.07
same,PRISMA enrichment of interactor (log2),[69],6.75
same,PRISMA enrichment of interactor (log2),[70],4.81
same,PRISMA enrichment of interactor (log2),[71],8.58
same,PRISMA enrichment of interactor (log2),[72],4.6
same,PRISMA enrichment of interactor (log2),[73],5.07
same,PRISMA enrichment of interactor (log2),[74],6.72
same,PRISMA enrichment of interactor (log2),[75],6.62
same,PRISMA enrichment of interactor (log2),[76],9.27
same,PRISMA enrichment of interactor (log2),[77],4.49
same,PRISMA enrichment of interactor (log2),[78],4.87
same,PRISMA enrichment of interactor (log2),[79],7.08
same,PRISMA enrichment of interactor (log2),[80],7.28
same,PRISMA enrichment of interactor (log2),[81],4.73
same,PRISMA enrichment of interactor (log2),[82],7.44
same,PRISMA enrichment of interactor (log2),[20],6.19
same,PRISMA enrichment of interactor (log2),[83],6.25
same,PRISMA enrichment of interactor (log2),[84],3.75
same,PRISMA enrichment of interactor (log2),[85],6.55
same,PRISMA enrichment of interactor (log2),[86],4.61
same,PRISMA enrichment of interactor (log2),[87],4.59
same,PRISMA enrichment of interactor (log2),[88],7.4
same,PRISMA enrichment of interactor (log2),[89],5.77
same,PRISMA enrichment of interactor (log2),[90],8.56
same,PRISMA enrichment of interactor (log2),[60],5.16
same,PRISMA enrichment of interactor (log2),[91],4.83

# Reformatted: entries from further up
binder	measurement	setting	value
FLPDVLLSDSSDTSE [NAV2-AS2_2]	PRISMA enrichment of interactor (log2)	[37]	4.29
AHGTRARRATAASPS [THAP7]	PRISMA enrichment of interactor (log2)	[45]	4.06
SPADVAGPGLAMEKA [RP11-432J24.5_2]	PRISMA enrichment of interactor (log2)	[76]	9.27
same	PRISMA enrichment of interactor (log2)	[77]	4.49
same	PRISMA enrichment of interactor (log2)	[85]	6.55
same	PRISMA enrichment of interactor (log2)	[87]	4.59

# Reference: the supplement of paper PMC10032668
